{
  "source": "patent US6884777B1",
  "about": "“Method for treating respiratory distress syndrome” (The Nemours Foundation, priority 2000, dated 2005)",
  "system": "pregnant rats",
  "test": "Antenatal treatment of pregnant rats: weight of maternal and fetal lungs",
  "type": "in vivo, rat",
  "details": "antenatal treatment 48 h",
  "experimental": "Leptin (1 mg/kg body weight) was administered to pregnant rats at d16 of gestation and 24 h later by intraperitoneal injection. Dexamethasone at 6 mg per kg body weight was administered at similar time intervals as leptin. In addition, the effect of a combination of leptin and dexamethasone treatment was tested. After 48 h of leptin, dexamethasone or leptin/dexamethasone exposure, premature delivery of the rat pups was induced at d18, which is similar to 30 weeks of gestation in the human. The fetuses from each litter were pooled and weighed, and various tissues from both the rat fetuses and mothers were also dissected and weighed. […] Antenatal treatment with dexamethasone increased fetal lung weight by 41%.",
  "data": [
    {"substance": "leptin", "values": [
      {"measurement": "Average weight fetal head", "setting": "delivery at d18, n = 9", "result": "0.45 (n = 9) g"},
      {"measurement": "Average weight fetus", "setting": "delivery at d18, n = 9", "result": "1.56 (n = 9) g"},
      {"measurement": "Maternal lung weight", "setting": "leptin 1 mg/kg, dexamethasone 6 mg/kg i.p.", "result": 1.21, "unit": "g"}
    ]}
  ]
}
